Experimental data published in patent EP1948196B1, “USE OF TETRAORGANOSILICON COMPOUNDS” (Salama, Zoser B., priority 2005, dated 2007).
Not every detail of the peptide structures is certain; ends, links or a residue may be inferred. Some entries repeat one wording, which the source may state once for all of them. Numbered stars: 1 amine (or outer) side, 2 acyl side, 3 side chain; on linkers, the order of the positions; unused ones are H or OH. Bridge positions count the residues as written; N and C are the ends. Peptide text beside a SMILES is read from it. I, II: the chains in the order shown. OSi(nPr)2O = CCC[Si](CCC)(O[*:1])O[*:2]; X1 = C[Si](C)(O[*:1])O[*:2]

How the values were obtained:
[1] = test system: Zellen des Basatzellkarzinoms; assay: Inhibition of cell multiplication; format: cell-based
[2] = test system: Osteosarkom bzw. Adenokarzinome; assay: Effect in mice on osteosarcoma or adenocarcinoma; parameters: species or system Mäuse; settings: in vivo
Medulloblastom-Zellen = assay: Inhibition of cell multiplication; format: cell-based
Lymphome = assay: Effect on lymphomas
Medulloblastome = assay: Effect on medulloblastomas
Basalzellkarzinome = assay: Effect on basal cell carcinomas
Adenokarzinome = assay: Effect on adenocarcinomas
Herpes-Viren = assay: Antiviral effect; settings: in particular as vesicles holding antisense constructs
Plasmozyten = assay: Effect against plasmocytes
Hepatitis A-Viren = assay: Antiviral effect; settings: in particular as vesicles holding antisense constructs

## C[C@H](N)C(=O)N[C@@H](C)C(=O)N[C@@H](C)C(=O)N[C@@H](C)C(=O)N[C@@H](C)C(=O)N[C@@H](C)C(=O)N[C@@H](C)C(=O)O[Si](C)(C)OC(=O)[C@H](C)NC(=O)[C@H](C)NC(=O)[C@H](C)NC(=O)[C@H](C)NC(=O)[C@H](C)NC(=O)[C@H](C)NC(=O)[C@H](C)N [Dimethyl bis(heptaalanyl)silylester] (I: H-AAAAAAA / II: H-AAAAAAA; linker I:C-II:C via X1)
[1]
  Vermehrung von Zellen des Basatzellkarzinoms: inhibieren
[2]
  Wirkung auf Mäuse, Osteosarkom bzw. Adenokarzinome: zeigen eine Wirkung
Medulloblastom-Zellen
  Vermehrung von Medulloblastom-Zellen: inhibieren

## C[Si](C)(OC(=O)[C@H](Cc1ccccc1)NC(=O)[C@H](Cc1ccccc1)NC(=O)[C@H](Cc1ccccc1)NC(=O)[C@H](Cc1ccccc1)NC(=O)[C@H](Cc1ccccc1)NC(=O)[C@H](Cc1ccccc1)NC(=O)[C@@H](N)Cc1ccccc1)OC(=O)[C@H](Cc1ccccc1)NC(=O)[C@H](Cc1ccccc1)NC(=O)[C@H](Cc1ccccc1)NC(=O)[C@H](Cc1ccccc1)NC(=O)[C@H](Cc1ccccc1)NC(=O)[C@H](Cc1ccccc1)NC(=O)[C@@H](N)Cc1ccccc1 [Dimethyl bis(heptaphenylalanyl) silylester] (I: H-FFFFFFF / II: H-FFFFFFF; linker I:C-II:C via X1)
Lymphome
  Wirkung auf Lymphome: zeigen eine Wirkung

## C[C@H](N)C(=O)N[C@@H](C)C(=O)N[C@@H](C)C(=O)N[C@@H](C)C(=O)N[C@@H](C)C(=O)N[C@@H](C)C(=O)O[Si](C)(C)OC(=O)[C@H](C)NC(=O)[C@H](C)NC(=O)[C@H](C)NC(=O)[C@H](C)NC(=O)[C@H](C)NC(=O)[C@H](C)N [Dimethyl bis(hexaalanyl)silylester]
[1]
  Vermehrung von Zellen des Basatzellkarzinoms: inhibieren
[2]
  Wirkung auf Mäuse, Osteosarkom bzw. Adenokarzinome: zeigen eine Wirkung
Medulloblastom-Zellen
  Vermehrung von Medulloblastom-Zellen: inhibieren

## C[Si](C)(OC(=O)CNC(=O)CNC(=O)CNC(=O)CNC(=O)CNC(=O)CN)OC(=O)CNC(=O)CNC(=O)CNC(=O)CNC(=O)CNC(=O)CN [Dimethyl bis(hexaglycyl)silylester]
Medulloblastome
  Wirkung gegen Medulloblastome: zeigen eine Wirkung

## C[Si](C)(OC(=O)[C@H](Cc1ccccc1)NC(=O)[C@H](Cc1ccccc1)NC(=O)[C@H](Cc1ccccc1)NC(=O)[C@H](Cc1ccccc1)NC(=O)[C@H](Cc1ccccc1)NC(=O)[C@@H](N)Cc1ccccc1)OC(=O)[C@H](Cc1ccccc1)NC(=O)[C@H](Cc1ccccc1)NC(=O)[C@H](Cc1ccccc1)NC(=O)[C@H](Cc1ccccc1)NC(=O)[C@H](Cc1ccccc1)NC(=O)[C@@H](N)Cc1ccccc1 [Dimethyl bis(hexaphenylalanyl)silylester] (I: H-FFFFFF / II: H-FFFFFF; linker I:C-II:C via X1)
Basalzellkarzinome
  Wirkung auf Basalzellkarzinome: zeigen eine Wirkung

## CCC[Si](CCC)(OC(=O)[C@@H](NC(=O)[C@@H](NC(=O)[C@@H](NC(=O)[C@@H](NC(=O)[C@@H](NC(=O)[C@@H](NC(=O)[C@@H](N)C(C)C)C(C)C)C(C)C)C(C)C)C(C)C)C(C)C)C(C)C)OC(=O)[C@@H](NC(=O)[C@@H](NC(=O)[C@@H](NC(=O)[C@@H](NC(=O)[C@@H](NC(=O)[C@@H](NC(=O)[C@@H](N)C(C)C)C(C)C)C(C)C)C(C)C)C(C)C)C(C)C)C(C)C [Dipropyl bis(heptavalyl)silylester] (I: H-VVVVVVV / II: H-VVVVVVV; linker I:C-II:C via OSi(nPr)2O)
Adenokarzinome
  Wirkung auf Adenokarzinome: zeigen eine Wirkung
Herpes-Viren
  Wirkung gegen Herpes-Viren: zeigen eine Wirkung

## CCC[Si](CCC)(OC(=O)[C@H](Cc1ccccc1)NC(=O)[C@H](Cc1ccccc1)NC(=O)[C@H](Cc1ccccc1)NC(=O)[C@H](Cc1ccccc1)NC(=O)[C@H](Cc1ccccc1)NC(=O)[C@@H](N)Cc1ccccc1)OC(=O)[C@H](Cc1ccccc1)NC(=O)[C@H](Cc1ccccc1)NC(=O)[C@H](Cc1ccccc1)NC(=O)[C@H](Cc1ccccc1)NC(=O)[C@H](Cc1ccccc1)NC(=O)[C@@H](N)Cc1ccccc1 [Dipropyl bis(hexaphenylalanyl)silylester] (I: H-FFFFFF / II: H-FFFFFF; linker I:C-II:C via OSi(nPr)2O)
Plasmozyten
  Wirkung gegen Plasmozyten: zeigen eine Wirkung
Hepatitis A-Viren
  Wirkung gegen Hepatitis A-Viren: zeigen eine Wirkung

## CCC[Si](CCC)(OC(=O)[C@@H](NC(=O)[C@@H](NC(=O)[C@@H](NC(=O)[C@@H](NC(=O)[C@@H](NC(=O)[C@@H](N)C(C)C)C(C)C)C(C)C)C(C)C)C(C)C)C(C)C)OC(=O)[C@@H](NC(=O)[C@@H](NC(=O)[C@@H](NC(=O)[C@@H](NC(=O)[C@@H](NC(=O)[C@@H](N)C(C)C)C(C)C)C(C)C)C(C)C)C(C)C)C(C)C [Dipropyl bis(hexavalyl)silylester] (I: H-VVVVVV / II: H-VVVVVV; linker I:C-II:C via OSi(nPr)2O)
Adenokarzinome
  Wirkung auf Adenokarzinome: zeigen eine Wirkung
Herpes-Viren
  Wirkung gegen Herpes-Viren: zeigen eine Wirkung

## CCC[Si](CCC)(OC(=O)[C@H](Cc1ccccc1)NC(=O)[C@H](Cc1ccccc1)NC(=O)[C@H](Cc1ccccc1)NC(=O)[C@H](Cc1ccccc1)NC(=O)[C@H](Cc1ccccc1)NC(=O)[C@H](Cc1ccccc1)NC(=O)[C@H](Cc1ccccc1)NC(=O)[C@@H](N)Cc1ccccc1)OC(=O)[C@H](Cc1ccccc1)NC(=O)[C@H](Cc1ccccc1)NC(=O)[C@H](Cc1ccccc1)NC(=O)[C@H](Cc1ccccc1)NC(=O)[C@H](Cc1ccccc1)NC(=O)[C@H](Cc1ccccc1)NC(=O)[C@H](Cc1ccccc1)NC(=O)[C@@H](N)Cc1ccccc1 [Dipropyl bis(octaphenylalanyl)silylester] (I: H-FFFFFFFF / II: H-FFFFFFFF; linker I:C-II:C via OSi(nPr)2O)
Plasmozyten
  Wirkung gegen Plasmozyten: zeigen eine Wirkung
Hepatitis A-Viren
  Wirkung gegen Hepatitis A-Viren: zeigen eine Wirkung

## CCC[Si](CCC)(OC(=O)[C@@H](NC(=O)[C@@H](NC(=O)[C@@H](NC(=O)[C@@H](NC(=O)[C@@H](NC(=O)[C@@H](NC(=O)[C@@H](NC(=O)[C@@H](N)C(C)C)C(C)C)C(C)C)C(C)C)C(C)C)C(C)C)C(C)C)C(C)C)OC(=O)[C@@H](NC(=O)[C@@H](NC(=O)[C@@H](NC(=O)[C@@H](NC(=O)[C@@H](NC(=O)[C@@H](NC(=O)[C@@H](NC(=O)[C@@H](N)C(C)C)C(C)C)C(C)C)C(C)C)C(C)C)C(C)C)C(C)C)C(C)C [Dipropyl bis(octavalyl)silylester] (I: H-VVVVVVVV / II: H-VVVVVVVV; linker I:C-II:C via OSi(nPr)2O)
Adenokarzinome
  Wirkung auf Adenokarzinome: zeigen eine Wirkung
Herpes-Viren
  Wirkung gegen Herpes-Viren: zeigen eine Wirkung
